28 substances from PMC9723622 can be followed below.

The chains behind the UniProt entries cited, without tags or fusion partners.
UniProt P09874: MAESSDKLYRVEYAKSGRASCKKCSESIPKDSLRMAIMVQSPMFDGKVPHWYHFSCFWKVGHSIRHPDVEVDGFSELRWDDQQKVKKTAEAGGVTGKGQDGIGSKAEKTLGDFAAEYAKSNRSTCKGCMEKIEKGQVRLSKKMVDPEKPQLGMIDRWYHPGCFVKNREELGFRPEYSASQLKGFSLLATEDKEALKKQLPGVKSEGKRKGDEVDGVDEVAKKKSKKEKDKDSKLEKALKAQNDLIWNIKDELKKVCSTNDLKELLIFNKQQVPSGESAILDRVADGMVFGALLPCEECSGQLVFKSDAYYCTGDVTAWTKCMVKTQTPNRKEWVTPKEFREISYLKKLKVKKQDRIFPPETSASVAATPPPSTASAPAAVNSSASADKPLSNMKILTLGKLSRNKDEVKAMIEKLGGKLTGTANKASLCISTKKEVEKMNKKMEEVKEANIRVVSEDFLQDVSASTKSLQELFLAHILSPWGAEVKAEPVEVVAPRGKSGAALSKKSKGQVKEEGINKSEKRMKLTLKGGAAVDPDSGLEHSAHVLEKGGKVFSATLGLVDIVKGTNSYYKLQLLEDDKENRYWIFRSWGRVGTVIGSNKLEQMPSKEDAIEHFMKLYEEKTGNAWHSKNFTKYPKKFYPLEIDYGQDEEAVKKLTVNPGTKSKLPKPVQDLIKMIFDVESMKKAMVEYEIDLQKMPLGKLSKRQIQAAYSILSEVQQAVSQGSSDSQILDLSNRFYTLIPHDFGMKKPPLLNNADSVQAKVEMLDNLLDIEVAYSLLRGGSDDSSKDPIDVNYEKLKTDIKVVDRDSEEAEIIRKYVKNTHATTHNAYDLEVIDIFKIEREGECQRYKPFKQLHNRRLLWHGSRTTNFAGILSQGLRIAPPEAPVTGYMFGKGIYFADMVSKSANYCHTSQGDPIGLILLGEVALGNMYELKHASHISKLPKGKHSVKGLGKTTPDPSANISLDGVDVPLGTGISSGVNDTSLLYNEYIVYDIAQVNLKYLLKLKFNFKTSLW
UniProt Q9ULW0: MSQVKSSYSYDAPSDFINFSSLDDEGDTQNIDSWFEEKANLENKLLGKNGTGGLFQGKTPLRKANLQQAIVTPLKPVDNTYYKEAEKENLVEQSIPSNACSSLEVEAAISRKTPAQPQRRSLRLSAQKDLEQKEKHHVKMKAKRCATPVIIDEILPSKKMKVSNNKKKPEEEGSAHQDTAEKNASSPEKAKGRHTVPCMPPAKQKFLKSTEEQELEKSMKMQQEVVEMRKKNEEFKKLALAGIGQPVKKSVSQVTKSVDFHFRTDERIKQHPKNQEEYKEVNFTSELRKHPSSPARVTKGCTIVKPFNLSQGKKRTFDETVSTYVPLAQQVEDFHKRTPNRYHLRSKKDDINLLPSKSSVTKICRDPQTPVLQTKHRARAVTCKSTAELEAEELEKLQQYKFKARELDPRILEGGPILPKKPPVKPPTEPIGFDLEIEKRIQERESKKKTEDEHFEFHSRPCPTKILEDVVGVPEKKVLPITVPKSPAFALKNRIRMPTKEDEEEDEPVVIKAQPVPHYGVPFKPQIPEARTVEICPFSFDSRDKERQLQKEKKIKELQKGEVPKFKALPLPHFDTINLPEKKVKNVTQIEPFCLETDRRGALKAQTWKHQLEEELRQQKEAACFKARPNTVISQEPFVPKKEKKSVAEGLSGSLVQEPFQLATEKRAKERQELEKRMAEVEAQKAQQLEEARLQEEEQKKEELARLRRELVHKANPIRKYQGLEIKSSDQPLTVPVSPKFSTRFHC
UniProt Q86WJ1: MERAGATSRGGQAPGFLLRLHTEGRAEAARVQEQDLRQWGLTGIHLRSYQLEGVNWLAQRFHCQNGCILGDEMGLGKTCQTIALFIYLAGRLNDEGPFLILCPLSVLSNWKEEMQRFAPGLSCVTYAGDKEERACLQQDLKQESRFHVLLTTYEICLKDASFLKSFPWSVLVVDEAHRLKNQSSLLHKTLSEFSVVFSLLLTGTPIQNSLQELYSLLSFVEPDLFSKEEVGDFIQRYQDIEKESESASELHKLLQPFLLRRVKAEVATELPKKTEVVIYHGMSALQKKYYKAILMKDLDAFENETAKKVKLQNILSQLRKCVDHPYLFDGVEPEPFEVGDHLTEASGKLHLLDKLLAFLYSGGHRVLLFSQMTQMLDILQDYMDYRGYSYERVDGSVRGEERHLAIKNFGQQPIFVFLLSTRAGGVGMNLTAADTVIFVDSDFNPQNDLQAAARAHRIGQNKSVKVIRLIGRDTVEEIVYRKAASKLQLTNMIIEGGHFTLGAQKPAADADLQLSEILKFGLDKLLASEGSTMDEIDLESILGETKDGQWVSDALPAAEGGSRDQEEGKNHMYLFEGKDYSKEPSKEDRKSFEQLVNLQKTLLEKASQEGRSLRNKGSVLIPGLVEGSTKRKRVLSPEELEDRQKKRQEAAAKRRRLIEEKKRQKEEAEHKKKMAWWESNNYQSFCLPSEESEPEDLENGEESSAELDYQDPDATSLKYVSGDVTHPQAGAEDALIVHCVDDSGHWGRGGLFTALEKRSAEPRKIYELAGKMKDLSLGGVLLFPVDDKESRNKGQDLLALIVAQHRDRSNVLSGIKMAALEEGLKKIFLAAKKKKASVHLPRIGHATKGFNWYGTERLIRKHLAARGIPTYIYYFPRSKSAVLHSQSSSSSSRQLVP
UniProt P18858: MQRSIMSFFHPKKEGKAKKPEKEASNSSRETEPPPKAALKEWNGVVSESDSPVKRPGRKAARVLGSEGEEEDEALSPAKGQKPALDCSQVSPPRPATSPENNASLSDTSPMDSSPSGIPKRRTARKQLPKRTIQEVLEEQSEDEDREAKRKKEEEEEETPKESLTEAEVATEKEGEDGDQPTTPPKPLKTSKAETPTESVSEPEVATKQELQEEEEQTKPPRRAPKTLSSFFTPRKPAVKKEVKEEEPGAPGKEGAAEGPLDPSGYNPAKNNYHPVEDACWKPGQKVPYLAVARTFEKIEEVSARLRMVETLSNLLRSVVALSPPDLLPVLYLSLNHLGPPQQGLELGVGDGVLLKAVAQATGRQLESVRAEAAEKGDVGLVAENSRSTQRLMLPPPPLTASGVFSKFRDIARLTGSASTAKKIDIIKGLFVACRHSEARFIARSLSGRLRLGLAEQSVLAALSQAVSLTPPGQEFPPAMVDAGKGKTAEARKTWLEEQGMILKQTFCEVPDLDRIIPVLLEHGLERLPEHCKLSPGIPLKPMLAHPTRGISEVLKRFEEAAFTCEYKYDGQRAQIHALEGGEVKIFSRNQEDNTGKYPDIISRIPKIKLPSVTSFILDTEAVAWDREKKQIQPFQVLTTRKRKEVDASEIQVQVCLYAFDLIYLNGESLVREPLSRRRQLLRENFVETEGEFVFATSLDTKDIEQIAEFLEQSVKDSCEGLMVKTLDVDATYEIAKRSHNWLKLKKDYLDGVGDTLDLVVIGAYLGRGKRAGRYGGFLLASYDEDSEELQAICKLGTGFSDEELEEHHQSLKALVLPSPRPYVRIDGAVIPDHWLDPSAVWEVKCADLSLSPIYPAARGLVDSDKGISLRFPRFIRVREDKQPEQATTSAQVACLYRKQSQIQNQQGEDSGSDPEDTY
UniProt P12004: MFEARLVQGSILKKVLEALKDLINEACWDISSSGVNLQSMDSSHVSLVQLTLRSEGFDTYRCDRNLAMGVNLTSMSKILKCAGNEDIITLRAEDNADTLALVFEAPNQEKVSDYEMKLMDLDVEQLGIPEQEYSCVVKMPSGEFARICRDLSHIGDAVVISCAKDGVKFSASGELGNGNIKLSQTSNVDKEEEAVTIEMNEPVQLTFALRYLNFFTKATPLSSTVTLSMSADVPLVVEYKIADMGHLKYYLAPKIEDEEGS
UniProt Q92878: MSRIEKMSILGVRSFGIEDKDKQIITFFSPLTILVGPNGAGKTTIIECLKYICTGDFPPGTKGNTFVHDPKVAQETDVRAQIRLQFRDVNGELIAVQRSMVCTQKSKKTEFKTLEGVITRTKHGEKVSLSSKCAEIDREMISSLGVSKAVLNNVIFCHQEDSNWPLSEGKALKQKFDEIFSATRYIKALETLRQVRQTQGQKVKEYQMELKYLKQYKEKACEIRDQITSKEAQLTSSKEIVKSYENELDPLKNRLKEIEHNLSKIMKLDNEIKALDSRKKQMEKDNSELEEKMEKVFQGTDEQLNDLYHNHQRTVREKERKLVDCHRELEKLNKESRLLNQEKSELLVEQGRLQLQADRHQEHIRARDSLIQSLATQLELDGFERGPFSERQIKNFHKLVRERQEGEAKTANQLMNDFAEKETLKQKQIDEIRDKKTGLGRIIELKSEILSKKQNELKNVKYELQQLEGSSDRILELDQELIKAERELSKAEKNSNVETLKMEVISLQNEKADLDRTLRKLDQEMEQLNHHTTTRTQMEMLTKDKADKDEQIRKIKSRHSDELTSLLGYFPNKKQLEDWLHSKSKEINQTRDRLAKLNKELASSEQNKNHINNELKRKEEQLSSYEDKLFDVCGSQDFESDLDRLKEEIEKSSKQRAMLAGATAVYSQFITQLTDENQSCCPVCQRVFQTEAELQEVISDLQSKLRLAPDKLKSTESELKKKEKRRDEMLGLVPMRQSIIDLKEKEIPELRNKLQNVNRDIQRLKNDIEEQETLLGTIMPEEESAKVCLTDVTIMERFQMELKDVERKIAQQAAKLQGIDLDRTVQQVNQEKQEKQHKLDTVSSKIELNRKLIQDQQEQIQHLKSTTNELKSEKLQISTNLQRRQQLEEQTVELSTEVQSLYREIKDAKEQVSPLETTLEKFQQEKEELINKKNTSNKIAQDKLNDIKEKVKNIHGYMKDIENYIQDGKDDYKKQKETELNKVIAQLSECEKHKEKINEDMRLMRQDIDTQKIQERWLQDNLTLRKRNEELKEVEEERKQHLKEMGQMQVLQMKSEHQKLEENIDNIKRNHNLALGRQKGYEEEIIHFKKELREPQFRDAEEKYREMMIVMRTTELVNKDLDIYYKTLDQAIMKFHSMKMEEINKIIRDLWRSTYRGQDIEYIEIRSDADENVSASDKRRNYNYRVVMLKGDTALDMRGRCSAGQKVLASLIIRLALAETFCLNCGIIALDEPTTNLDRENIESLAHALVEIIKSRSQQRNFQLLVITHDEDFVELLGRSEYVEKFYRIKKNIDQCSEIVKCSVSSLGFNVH
UniProt P27694: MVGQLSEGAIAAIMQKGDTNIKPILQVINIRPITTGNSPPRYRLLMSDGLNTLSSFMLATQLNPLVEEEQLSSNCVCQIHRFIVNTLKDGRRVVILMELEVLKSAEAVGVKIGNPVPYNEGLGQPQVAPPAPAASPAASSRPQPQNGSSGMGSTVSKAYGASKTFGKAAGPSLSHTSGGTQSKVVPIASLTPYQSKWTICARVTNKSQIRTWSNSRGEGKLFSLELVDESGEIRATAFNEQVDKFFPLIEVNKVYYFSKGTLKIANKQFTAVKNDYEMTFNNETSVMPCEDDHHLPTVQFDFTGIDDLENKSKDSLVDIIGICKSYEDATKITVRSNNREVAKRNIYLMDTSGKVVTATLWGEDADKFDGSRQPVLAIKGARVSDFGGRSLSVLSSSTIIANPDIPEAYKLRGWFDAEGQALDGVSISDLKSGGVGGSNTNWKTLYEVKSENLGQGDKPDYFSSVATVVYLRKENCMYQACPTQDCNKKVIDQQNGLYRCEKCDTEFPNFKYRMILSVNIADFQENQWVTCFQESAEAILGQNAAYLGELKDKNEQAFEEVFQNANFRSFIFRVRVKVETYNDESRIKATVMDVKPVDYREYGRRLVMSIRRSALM
UniProt P13010: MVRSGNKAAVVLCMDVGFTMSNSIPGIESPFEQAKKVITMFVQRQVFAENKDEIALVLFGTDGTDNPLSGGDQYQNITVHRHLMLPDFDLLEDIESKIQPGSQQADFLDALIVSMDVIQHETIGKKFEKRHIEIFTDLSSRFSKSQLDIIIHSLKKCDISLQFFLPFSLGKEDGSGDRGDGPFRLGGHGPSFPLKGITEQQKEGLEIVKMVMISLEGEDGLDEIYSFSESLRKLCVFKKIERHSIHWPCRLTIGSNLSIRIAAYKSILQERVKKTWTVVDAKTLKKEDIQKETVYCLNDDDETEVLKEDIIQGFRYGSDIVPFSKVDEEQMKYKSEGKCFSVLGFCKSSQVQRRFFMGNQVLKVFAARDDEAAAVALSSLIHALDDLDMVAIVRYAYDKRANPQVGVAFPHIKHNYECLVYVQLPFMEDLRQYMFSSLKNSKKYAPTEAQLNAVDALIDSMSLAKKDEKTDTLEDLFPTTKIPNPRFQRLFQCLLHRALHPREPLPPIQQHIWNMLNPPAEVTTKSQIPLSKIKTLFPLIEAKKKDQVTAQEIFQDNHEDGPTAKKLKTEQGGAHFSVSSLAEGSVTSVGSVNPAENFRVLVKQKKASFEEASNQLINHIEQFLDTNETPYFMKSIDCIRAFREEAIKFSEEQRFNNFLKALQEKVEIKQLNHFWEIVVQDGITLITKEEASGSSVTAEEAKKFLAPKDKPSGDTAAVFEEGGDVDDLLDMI

These are yes or no findings as the source states them, for the method shown. Binding seen in cells or lysates may run through a third protein. These calls come from enrichment with a bait or labelling near it, and not all partners need be listed.

Assay [1] concerns the target full-length PARP1 tagged on the N-terminus with APEX2 (expressed in U2OS cells) (human) (UniProt P09874). Description: proximity labelling; APEX2-PARP1 in SILAC-labelled U2OS cells; 500 uM biotin phenol 2 h, 1 mM H2O2 2 min, against no H2O2; nuclear extract, NeutrAvidin pull-down, LC-MS/MS; FDR < 1%.
Assay [2] has as its target GFP-tagged TPX2, full length (expressed in U2OS cells) (UniProt Q9ULW0). Description: affinity purification with mass spectrometry; GFP-TPX2 transiently expressed in U2OS; GFP-Trap beads, modified RIPA washes, on-bead digestion, label-free quantification against a GFP control.
Assay [3] addresses full-length PARP1 tagged on the N-terminus with APEX2 (expressed in HEK293T cells) (human) (UniProt P09874). Description: proximity labelling; APEX2-PARP1 in HEK293T cells after olaparib or DMSO treatment; SILAC, NeutrAvidin pull-down, LC-MS/MS.
The target of assay [4] is GFP-tagged TPX2, full length (expressed in U2OS cells) (UniProt Q9ULW0). The assay is described as follows: affinity purification with mass spectrometry; SILAC-based co-IP-MS of the N-terminal deletion mutant or full-length TPX2 in U2OS cells (Supplementary Figure S4d).
Assay [5] has the same target. Description: affinity purification with mass spectrometry; GFP-TPX2; GFP-Trap beads, SILAC-based co-IP-MS (Supplementary Figure S4b).

Consider 53BP1 (from UniProt Q12888 1-1972), for which the binding entry in assay [1] and in assay [2] was “binds” each time.

For the substance “APEX1 (from UniProt P27695 1-318) (other; other documents disagree on this pair)”, the binding result in assay [3] was “binds”.

For ATR (from UniProt Q13535 1-2644), in assay [3], the binding result is listed as “binds”. Consider AURKA (from UniProt O14965 1-403), for which the binding result in assay [1] is “binds”. In the case of BLM (from UniProt P54132 1-1417), the binding entry in assay [1] is “binds”. On to CHD1L (from UniProt Q86WJ1 1-897), for which the binding result in assay [1], in assay [3] and in assay [2] was “binds” in each case. Turning to FUS (from UniProt P35637 1-526), the binding entry in assay [1] was “binds”. As for LIG1 (from UniProt P18858 1-919), in assay [1], the binding result was “binds”. Consider MCM2 (from UniProt P49736 1-904), for which the binding result in assay [3] is given as “binds”. Regarding MDC1 (from UniProt Q14676 1-2089), the binding entry in assay [1] and in assay [2] was “binds” in each case. For the substance NBN (from UniProt O60934 1-754), in assay [1], the binding entry was “binds”. For “PARP2 (from UniProt Q9UGN5 1-583) (enzyme)”, the binding entry in assay [2] is “binds”. In the case of PCNA (from UniProt P12004 1-261), the binding entry in assay [3] was “binds”. On to PRKDC (from UniProt P78527 1-4128), for which, in assay [1], the binding result is reported as “binds”. The same measure, in the same setting: under RAD50 (from UniProt Q92878 1-1312) stands “binds”. Regarding RFC2 (from UniProt P35250 1-354), in assay [2], the binding entry was “binds”. For RFC5 (from UniProt P40937 1-340), the binding result in assay [2] is listed as “binds”. Consider RNASEH2A (from UniProt O75792 1-299), for which the binding entry in assay [3] is “binds”. Turning to RPA1 (from UniProt P27694 1-616), the binding result in assay [1] and in assay [2] was “binds” in each case. Consider SRSF1 (from UniProt Q07955 1-248), for which the binding result in assay [3] is listed as “binds”. On to UIMC1 (from UniProt Q96RL1 1-719), for which the binding entry in assay [1] was “binds”. As for VCP (from UniProt P55072 1-806), the binding entry in assay [3] was “binds”.

For the substance XRCC1 (from UniProt P18887 1-633), the binding entry in assay [2] is on record as “binds”. For the substance XRCC5 (from UniProt P13010 1-732), the binding entry in assay [1], in assay [4], in assay [3] and in assay [2] was “binds” throughout. Take XRCC6 (from UniProt P12956 1-609): the binding entry in assay [4] and in assay [2] was “binds” in each case.

As for “endogenous PARP1 (from UniProt P09874 1-1014) (enzyme)”, the binding result in assay [5], in assay [4] and in assay [2] was “binds” each time.

Regarding “endogenous Targeting protein for Xklp2 (TPX2) (from UniProt Q9ULW0 1-747)”, the binding result in assay [1] and in assay [3] was “binds” in each case. In the case of “single-stranded DNA-binding protein RPA2 (from UniProt P15927 1-270)”, the binding result in assay [1] was “binds”.
